Experiment in all cases: proximity labelling; TurboID; FLAG-TurboID-UPF3B WT or mutants in UPF3B KO clone 90 cells with UPF3A knockdown, 50 µM biotin for 15 min, streptavidin beads, mass spectrometry; against FLAG-TurboID control or against WT
Experiment [1] addresses T1, FLAG-TurboID-UPF3B (human) (UniProt Q9BZI7).
T1 sequence: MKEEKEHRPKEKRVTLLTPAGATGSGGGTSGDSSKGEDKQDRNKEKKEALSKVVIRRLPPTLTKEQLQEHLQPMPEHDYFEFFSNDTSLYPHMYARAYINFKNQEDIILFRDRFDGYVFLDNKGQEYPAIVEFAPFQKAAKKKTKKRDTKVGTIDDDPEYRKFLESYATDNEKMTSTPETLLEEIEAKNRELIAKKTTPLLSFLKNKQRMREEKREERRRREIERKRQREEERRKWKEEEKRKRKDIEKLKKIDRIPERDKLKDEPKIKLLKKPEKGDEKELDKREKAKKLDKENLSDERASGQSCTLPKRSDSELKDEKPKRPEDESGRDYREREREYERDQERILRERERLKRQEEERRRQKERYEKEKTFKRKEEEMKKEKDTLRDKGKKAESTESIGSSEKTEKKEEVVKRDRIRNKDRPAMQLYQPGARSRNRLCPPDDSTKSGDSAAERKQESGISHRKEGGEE

Sequences of proteins named here, by UniProt entry; tags and fusion partners are left off.
UniProt P15170: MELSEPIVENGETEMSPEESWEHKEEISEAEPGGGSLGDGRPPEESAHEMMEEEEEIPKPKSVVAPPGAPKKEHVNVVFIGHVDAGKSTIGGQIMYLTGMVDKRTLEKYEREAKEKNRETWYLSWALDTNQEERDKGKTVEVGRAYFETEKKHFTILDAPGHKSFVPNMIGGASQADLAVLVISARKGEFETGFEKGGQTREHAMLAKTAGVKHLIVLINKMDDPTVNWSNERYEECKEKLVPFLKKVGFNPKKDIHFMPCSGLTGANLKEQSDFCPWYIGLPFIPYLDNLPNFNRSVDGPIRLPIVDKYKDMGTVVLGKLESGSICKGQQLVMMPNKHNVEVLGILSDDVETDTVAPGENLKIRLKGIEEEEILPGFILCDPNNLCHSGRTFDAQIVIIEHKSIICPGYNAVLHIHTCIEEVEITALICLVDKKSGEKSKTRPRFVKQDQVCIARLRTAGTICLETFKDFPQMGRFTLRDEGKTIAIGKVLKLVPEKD
UniProt Q9HAU5: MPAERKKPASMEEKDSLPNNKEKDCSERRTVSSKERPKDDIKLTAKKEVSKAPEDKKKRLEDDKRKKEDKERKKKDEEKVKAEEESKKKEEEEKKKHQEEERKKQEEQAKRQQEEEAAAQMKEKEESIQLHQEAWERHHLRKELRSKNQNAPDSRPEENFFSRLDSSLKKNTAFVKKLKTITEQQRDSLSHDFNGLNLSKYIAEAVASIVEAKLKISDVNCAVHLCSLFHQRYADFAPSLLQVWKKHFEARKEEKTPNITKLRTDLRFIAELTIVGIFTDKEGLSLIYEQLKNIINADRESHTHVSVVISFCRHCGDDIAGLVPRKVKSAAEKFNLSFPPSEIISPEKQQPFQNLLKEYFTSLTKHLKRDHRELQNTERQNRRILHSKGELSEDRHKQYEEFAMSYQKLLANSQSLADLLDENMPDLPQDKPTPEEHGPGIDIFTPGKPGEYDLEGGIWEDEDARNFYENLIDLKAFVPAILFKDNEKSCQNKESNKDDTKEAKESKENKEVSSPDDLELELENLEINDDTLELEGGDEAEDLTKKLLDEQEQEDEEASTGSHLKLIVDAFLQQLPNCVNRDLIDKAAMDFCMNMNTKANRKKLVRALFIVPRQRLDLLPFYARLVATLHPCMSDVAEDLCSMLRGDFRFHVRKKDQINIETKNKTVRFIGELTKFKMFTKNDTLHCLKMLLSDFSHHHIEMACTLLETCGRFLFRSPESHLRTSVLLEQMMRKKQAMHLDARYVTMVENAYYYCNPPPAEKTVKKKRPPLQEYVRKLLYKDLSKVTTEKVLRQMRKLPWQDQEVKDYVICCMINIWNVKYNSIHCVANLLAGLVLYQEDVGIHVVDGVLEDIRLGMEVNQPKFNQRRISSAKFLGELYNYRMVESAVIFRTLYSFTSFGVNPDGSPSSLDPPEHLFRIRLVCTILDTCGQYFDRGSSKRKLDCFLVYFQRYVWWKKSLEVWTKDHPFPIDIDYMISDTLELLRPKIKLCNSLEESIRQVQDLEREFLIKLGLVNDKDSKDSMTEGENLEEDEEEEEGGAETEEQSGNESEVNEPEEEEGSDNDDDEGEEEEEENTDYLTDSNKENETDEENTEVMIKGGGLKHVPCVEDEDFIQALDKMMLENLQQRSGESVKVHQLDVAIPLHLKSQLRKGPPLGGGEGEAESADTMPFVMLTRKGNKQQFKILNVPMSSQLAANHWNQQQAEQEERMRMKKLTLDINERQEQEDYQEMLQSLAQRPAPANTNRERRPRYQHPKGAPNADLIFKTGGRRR
UniProt O15397: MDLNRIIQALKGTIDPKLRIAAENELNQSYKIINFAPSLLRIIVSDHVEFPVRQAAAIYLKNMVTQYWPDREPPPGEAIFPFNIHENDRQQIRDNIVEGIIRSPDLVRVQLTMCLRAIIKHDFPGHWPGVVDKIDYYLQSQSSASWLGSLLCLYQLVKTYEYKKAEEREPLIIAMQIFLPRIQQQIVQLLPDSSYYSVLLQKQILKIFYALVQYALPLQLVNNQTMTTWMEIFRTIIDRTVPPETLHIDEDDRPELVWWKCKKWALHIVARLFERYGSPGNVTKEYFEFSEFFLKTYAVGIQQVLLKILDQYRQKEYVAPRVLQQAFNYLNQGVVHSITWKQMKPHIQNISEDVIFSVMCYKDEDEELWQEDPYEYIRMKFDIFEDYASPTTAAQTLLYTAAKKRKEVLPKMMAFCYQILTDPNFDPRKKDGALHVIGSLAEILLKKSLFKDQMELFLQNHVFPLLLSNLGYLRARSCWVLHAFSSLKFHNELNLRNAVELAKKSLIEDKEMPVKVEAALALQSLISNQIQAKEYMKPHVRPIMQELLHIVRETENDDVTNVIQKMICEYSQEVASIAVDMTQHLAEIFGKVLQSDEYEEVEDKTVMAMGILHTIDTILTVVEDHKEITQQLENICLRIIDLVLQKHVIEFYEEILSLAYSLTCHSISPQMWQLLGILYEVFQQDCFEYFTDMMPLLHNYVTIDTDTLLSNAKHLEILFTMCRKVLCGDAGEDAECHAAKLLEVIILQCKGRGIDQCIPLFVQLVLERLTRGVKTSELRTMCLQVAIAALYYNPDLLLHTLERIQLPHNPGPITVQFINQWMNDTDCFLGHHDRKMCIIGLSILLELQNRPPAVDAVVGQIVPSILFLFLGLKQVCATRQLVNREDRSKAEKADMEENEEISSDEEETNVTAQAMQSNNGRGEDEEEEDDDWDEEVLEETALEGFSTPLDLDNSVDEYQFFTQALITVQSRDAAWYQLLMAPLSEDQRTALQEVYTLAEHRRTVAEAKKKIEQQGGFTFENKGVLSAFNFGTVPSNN

In experiment [2] the target is T2, FLAG-TurboID-UPF3B ΔEJC interaction (Δ421–434) (human) (UniProt Q9BZI7).
T2 sequence: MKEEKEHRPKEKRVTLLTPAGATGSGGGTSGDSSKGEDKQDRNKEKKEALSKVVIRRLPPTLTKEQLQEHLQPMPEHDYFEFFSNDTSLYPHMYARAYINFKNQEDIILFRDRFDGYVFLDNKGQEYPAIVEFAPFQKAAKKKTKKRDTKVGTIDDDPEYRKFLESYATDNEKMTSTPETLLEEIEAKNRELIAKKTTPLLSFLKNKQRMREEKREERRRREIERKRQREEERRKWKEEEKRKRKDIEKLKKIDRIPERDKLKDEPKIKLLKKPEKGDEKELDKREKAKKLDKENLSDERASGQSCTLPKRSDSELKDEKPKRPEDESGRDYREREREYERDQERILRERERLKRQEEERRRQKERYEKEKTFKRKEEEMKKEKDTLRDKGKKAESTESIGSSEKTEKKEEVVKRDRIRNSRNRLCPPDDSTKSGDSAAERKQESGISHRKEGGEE

The target of experiment [3] is T3, FLAG-TurboID-UPF3B ΔUPF2 interaction (K52D/RR56EE) (human) (UniProt Q9BZI7).
T3 sequence: T1 sequence with K52D, R56E, R57E

In experiment [4] the target is T4, FLAG-TurboID-UPF3B Δmiddle domain (Δ147–256) (human) (UniProt Q9BZI7).
T4 sequence: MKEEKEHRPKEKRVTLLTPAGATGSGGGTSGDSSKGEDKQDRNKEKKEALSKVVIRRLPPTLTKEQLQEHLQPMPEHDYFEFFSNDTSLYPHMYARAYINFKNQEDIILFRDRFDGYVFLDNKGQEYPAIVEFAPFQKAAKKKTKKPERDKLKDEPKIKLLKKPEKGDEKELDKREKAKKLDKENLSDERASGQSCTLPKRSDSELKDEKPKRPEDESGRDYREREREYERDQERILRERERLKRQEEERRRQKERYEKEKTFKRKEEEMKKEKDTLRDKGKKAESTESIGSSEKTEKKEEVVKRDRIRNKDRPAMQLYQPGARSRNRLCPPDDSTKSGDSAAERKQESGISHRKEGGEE

Positions count from the first letter of the chain named. No constants are given. Whether binding was seen depends on the method and setting. Binding seen in cells or lysates may run through a third protein. Here binding means that the protein was enriched with, or labelled near, the bait; the list need not be complete. For some of these results: A no says only that the protein was not detected with the bait. Sequences can lack the tags named with a protein.

With “eukaryotic release factor 3a (from UniProt P15170 1-499)”, in experiment [1], the binding entry was “no binding”. Still for that read-out and setting: the value for “UPF2 (endogenous) (from UniProt Q9HAU5 1-1272)” was “binds”; that for IPO8 (from UniProt O15397 1-1037) was “binds”.

B1: UPF1 (protein, UniProt Q92900 1-1129)
chain: MSVEAYGPSSQTLTFLDTEEAELLGADTQGSEFEFTDFTLPSQTQTPPGGPGGPGGGGAGGPGGAGAGAAAGQLDAQVGPEGILQNGAVDDSVAKTSQLLAELNFEEDEEDTYYTKDLPIHACSYCGIHDPACVVYCNTSKKWFCNGRGNTSGSHIVNHLVRAKCKEVTLHKDGPLGETVLECYNCGCRNVFLLGFIPAKADSVVVLLCRQPCASQSSLKDINWDSSQWQPLIQDRCFLSWLVKIPSEQEQLRARQITAQQINKLEELWKENPSATLEDLEKPGVDEEPQHVLLRYEDAYQYQNIFGPLVKLEADYDKKLKESQTQDNITVRWDLGLNKKRIAYFTLPKTDSGNEDLVIIWLRDMRLMQGDEICLRYKGDLAPLWKGIGHVIKVPDNYGDEIAIELRSSVGAPVEVTHNFQVDFVWKSTSFDRMQSALKTFAVDETSVSGYIYHKLLGHEVEDVIIKCQLPKRFTAQGLPDLNHSQVYAVKTVLQRPLSLIQGPPGTGKTVTSATIVYHLARQGNGPVLVCAPSNIAVDQLTEKIHQTGLKVVRLCAKSREAIDSPVSFLALHNQIRNMDSMPELQKLQQLKDETGELSSADEKRYRALKRTAERELLMNADVICCTCVGAGDPRLAKMQFRSILIDESTQATEPECMVPVVLGAKQLILVGDHCQLGPVVMCKKAAKAGLSQSLFERLVVLGIRPIRLQVQYRMHPALSAFPSNIFYEGSLQNGVTAADRVKKGFDFQWPQPDKPMFFYVTQGQEEIASSGTSYLNRTEAANVEKITTKLLKAGAKPDQIGIITPYEGQRSYLVQYMQFSGSLHTKLYQEVEIASVDAFQGREKDFIILSCVRANEHQGIGFLNDPRRLNVALTRARYGVIIVGNPKALSKQPLWNHLLNYYKEQKVLVEGPLNNLRESLMQFSKPRKLVNTINPGARFMTTAMYDAREAIIPGSVYDRSSQGRPSSMYFQTHDQIGMISAGPSHVAAMNIPIPFNLVMPPMPPPGYFGQANGPAAGRGTPKGKTGRGGRQKNRFGLPGPSQTNLPNSQASQDVASQPFSQGALTQGYISMSQPSQMSQPGLSQPELSQDSYLGDEFKSQIDVALSQDSTYQGERAYQHGGVTGLSQY
Take B1: the binding result in experiment [2], in experiment [3], in experiment [1] and in experiment [4] was “binds” in each case.

Values taken from article PMC9108619.
